Here are results for 1 molecule from publication PMC4450266.

Results are given in words; binding and its absence hold for the method and conditions named. Binding seen in cells or lysates may run through a third protein. Here binding means that the protein was enriched with, or labelled near, the bait; the list need not be complete.

This assay deals with Leo1 (S. pombe). The assay can be described thus: affinity purification with mass spectrometry; Leo1 epitope-tagged at the endogenous locus, affinity purification followed by LC-MS/MS.

B1: Tpr1 (protein, UniProt O42668 1-1039)
chain: MEGFTLETHASRIIEVPLLGQEDQSVEIDCSSLPSDATELCEILVNEQAPREFWTKFAHEYYIRGLREQAILILKSGLETLKDSESLCILNANIAAIYLSMAREAMLKKDTDLRDEQLRNVRTYLEAANNIDSKSEINVLLHGIYRILLNPTDKESLENAARCFDFVLQKSGGNILGFLGKARILYAKGNYRSALKLYQRALVSNPQFKPDPRIGIGLCFWNLDMKTDALSAWTRVQQLDPKNTVVDTYIGLYYYDLAFQNVNNDSFVQNYGKALQHIQRAFKTRNNDPVASSILERYVYSKKNYEGCIKLAENVIQNSFSSSLIADGYYWMGRAYHQMGNNEKAMASYQKAKAADDRHLLSSVGIGQIQILQNDLTSAKLTFERIAEQNQSCFEALVVLGCLHASDSKPDLTKARMLLDRAFNLVGSSKLPRVVDSDLYITQARLWEKEDTKKSLGFLTRALDFLESAHMSVGPELLNNIAVLQYHLGLIPEAHGNIIKAKSVLPDANPELSLLLDYNLARCEEELGNTSVASEAYVSILEKHPSFIDARIRKCLLQLSNPNEETFKEIRHIMNADSQNLEVRAFFGWYLSKQKRRPVEDPEVRHCSQTLRHWHDDIYSLVQLGNAYMRQAREFRVHNDREKLKRQKLYIKAIQSYDQAIKFDPKNAHAAQGIAIILAQNRQFSKALLILSKVREAIKDATTLINIGNCLAELKQFSRAIEVFETVYSSTGESDTYGVLSCLGRVWLQRGRESKNVDYLKESVRYATLALEKNPENPSLLFNVAFVQFQLCELIRQKPENSRTVEDLNFAMQQLDASIETFTKLVSVEHPPYSPTSIEQRAKMAKNTTKRQLERAIQAQIEYEKSVAAKLEDARIQREKEKARRLAEEEALLKEKQERERQLQEERQKMQEEVLEWRKSQQKASEDDMSLSDDEEKQSGKKKKKDRKKRKSKSKQESSDSGVSEDDEIPLSDARNKTKKRRVNRRVISEEYTFDQDSDAEGNQEEEVSRTIEEKQDNDITDNQDDNKELNLFSEEDEE
As to B1, the binding entry is recorded as “binds”.
